From publication PMC4703963
No constants are given. Whether binding was seen depends on the method and setting. Binding seen in cells or lysates may run through a third protein. Some entries that bind do so weakly or less than the wild type. Tags and fused reporters may be left off the sequences shown.

Target: Flag-tagged PHD2 (with an HA-tagged copy of PHD2 in the co-immunoprecipitation) (human), Q9GZT9
Experiment: co-IP; HA-tagged and Flag-tagged PHD2 co-transfected; cells treated with H2O2 (0.2 mM) or expressing H-ras V12; lysates on anti-Flag-conjugated beads 1 h, washed with 200 mM NaCl; blot for HA
Settings: remark: other sources report otherwise

binding: binds
B1: Flag-tagged PHD2 (with an HA-tagged copy of PHD2 in the co-immunoprecipitation), Q9GZT9 1-426 (natural protein)
chain: MANDSGGPGGPSPSERDRQYCELCGKMENLLRCSRCRSSFYCCKEHQRQDWKKHKLVCQGSEGALGHGVGPHQHSGPAPPAAVPPPRAGAREPRKAAARRDNASGDAAKGKVKAKPPADPAAAASPCRAAAGGQGSAVAAEAEPGKEEPPARSSLFQEKANLYPPSNTPGDALSPGGGLRPNGQTKPLPALKLALEYIVPCMNKHGICVVDDFLGKETGQQIGDEVRALHDTGKFTDGQLVSQKSDSSKDIRGDKITWIEGKEPGCETIGLLMSSMDDLIRHCNGKLGSYKINGRTKAMVACYPGNGTGYVRHVDNPNGDGRCVTCIYYLNKDWDAKVSGGILRIFPEGKAQFADIEPKFDRLLFFWSDRRNPHEVQPAYATRYAITVWYFDADERARAKVKYLTGEKGVRVELNKPSDSVGKDVF
